Source: publication doi:10.1101/679936
These are yes or no findings as the source states them, for the method shown. In cells and extracts the contact can be indirect. Some binding calls cover weakened binding; strength is not graded here. Where a sequence is shown, tags or fusion partners need not be part of it.

Molecular target: T1, FLAG-tagged hamster SCAP (hamster) (UniProt P97260)
T1 sequence: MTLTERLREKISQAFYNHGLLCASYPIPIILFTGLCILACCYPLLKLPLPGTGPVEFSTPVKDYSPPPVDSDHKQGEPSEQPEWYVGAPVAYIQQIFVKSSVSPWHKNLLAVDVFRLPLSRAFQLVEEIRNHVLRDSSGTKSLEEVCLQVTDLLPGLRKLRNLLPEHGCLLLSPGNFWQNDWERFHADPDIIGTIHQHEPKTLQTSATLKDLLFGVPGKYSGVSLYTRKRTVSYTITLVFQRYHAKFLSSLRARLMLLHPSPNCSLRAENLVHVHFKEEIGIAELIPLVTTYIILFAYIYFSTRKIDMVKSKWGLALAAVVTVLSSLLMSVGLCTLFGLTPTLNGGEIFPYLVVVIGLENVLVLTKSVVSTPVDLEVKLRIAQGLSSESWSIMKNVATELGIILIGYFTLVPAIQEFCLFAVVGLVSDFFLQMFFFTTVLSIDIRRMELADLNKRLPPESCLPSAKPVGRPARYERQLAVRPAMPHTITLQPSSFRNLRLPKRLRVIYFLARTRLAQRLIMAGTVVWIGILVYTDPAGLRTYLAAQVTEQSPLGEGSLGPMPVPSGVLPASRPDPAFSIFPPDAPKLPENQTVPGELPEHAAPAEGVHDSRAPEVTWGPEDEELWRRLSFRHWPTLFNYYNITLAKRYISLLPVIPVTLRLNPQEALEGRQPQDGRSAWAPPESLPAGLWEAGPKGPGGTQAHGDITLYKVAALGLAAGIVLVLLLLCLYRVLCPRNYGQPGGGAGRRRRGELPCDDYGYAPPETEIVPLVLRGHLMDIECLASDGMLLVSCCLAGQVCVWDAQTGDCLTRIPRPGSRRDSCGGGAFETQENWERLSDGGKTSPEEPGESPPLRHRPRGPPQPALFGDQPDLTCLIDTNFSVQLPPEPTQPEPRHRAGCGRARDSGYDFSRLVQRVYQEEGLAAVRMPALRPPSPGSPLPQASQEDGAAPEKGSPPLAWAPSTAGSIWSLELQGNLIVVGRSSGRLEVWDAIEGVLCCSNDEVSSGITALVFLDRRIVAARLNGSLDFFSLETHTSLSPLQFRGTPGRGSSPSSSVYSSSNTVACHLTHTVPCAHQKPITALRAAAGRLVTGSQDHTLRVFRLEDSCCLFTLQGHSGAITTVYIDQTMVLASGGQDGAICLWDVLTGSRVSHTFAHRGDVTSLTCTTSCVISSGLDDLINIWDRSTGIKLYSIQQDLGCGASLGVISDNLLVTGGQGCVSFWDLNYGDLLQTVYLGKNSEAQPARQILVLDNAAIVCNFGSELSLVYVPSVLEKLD
Experiment: co-IP

binding: binds weakly
B1: Sac1, endogenous in HEK 293T (protein, UniProt Q9NTJ5 1-587)
chain: MATAAYEQLKLHITPEKFYVEACDDGADDVLTIDRVSTEVTLAVKKDVPPSAVTRPIFGILGTIHLVAGNYLIVITKKIKVGEFFSHVVWKATDFDVLSYKKTMLHLTDIQLQDNKTFLAMLNHVLNVDGFYFSTTYDLTHTLQRLSNTSPEFQEMSLLERADQRFVWNGHLLRELSAQPEVHRFALPVLHGFITMHSCSINGKYFDWILISRRSCFRAGVRYYVRGIDSEGHAANFVETEQIVHYNGSKASFVQTRGSIPVFWSQRPNLKYKPLPQISKVANHMDGFQRHFDSQVIIYGKQVIINLINQKGSEKPLEQTFATMVSSLGSGMMRYIAFDFHKECKNMRWDRLSILLDQVAEMQDELSYFLVDSAGQVVANQEGVFRSNCMDCLDRTNVIQSLLARRSLQAQLQRLGVLHVGQKLEEQDEFEKIYKNAWADNANACAKQYAGTGALKTDFTRTGKRTHLGLIMDGWNSMIRYYKNNFSDGFRQDSIDLFLGNYSVDELESHSPLSVPRDWKFLALPIIMVVAFSMCIICLLMAGDTWTETLAYVLFWGVASIGTFFIILYNGKDFVDAPRLVQKEKID
